{
  "source": "paper PMC6469618",
  "about": "(Environmental Science and Pollution Research International, 2019)",
  "origin": "cited, not measured here",
  "tested_on": "water louse",
  "details": "naturalistic pond experiment; ref Lagesson et al. 2016; cited from earlier work",
  "data": [
    {"smiles": "CN(C)CCOC(c1ccccc1)c1ccccc1", "note": "[diphenhydramine]", "values": [
      {"measurement": "Bioconcentration in water louse compared to European perch (Perca fluviatilis)", "value": "higher levels"}
    ]}
  ]
}
